Test results as given in the supplement of paper PMC10849652.
This is one part of the list.

Sequences of proteins named here, by UniProt entry; tags and fusion partners are left off. A change or cut given only in a name is not applied to a line headed by its entry.
UniProt Q9H900: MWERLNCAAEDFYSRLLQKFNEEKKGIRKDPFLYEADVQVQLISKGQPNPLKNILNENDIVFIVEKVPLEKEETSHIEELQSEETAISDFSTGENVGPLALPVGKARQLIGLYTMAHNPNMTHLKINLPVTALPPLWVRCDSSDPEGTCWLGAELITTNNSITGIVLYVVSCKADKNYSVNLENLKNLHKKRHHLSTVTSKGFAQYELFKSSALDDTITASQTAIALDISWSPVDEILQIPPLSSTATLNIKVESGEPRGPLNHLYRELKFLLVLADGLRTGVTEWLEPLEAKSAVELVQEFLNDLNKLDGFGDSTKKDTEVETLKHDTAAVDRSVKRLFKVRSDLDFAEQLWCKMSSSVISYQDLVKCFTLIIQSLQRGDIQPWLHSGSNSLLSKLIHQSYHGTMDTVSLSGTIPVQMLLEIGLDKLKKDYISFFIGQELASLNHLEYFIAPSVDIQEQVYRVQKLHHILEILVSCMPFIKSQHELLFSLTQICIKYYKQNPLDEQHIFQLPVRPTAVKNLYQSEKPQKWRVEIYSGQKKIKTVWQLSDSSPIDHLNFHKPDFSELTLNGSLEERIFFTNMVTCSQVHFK
UniProt O95229: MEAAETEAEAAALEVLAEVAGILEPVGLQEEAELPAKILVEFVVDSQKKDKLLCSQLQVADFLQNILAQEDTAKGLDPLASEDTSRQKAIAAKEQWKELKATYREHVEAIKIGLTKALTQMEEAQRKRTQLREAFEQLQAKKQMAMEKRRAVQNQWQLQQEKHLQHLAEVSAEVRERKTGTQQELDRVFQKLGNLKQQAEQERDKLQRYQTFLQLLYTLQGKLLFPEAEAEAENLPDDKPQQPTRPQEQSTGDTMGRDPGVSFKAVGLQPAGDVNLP
UniProt Q9C0D3: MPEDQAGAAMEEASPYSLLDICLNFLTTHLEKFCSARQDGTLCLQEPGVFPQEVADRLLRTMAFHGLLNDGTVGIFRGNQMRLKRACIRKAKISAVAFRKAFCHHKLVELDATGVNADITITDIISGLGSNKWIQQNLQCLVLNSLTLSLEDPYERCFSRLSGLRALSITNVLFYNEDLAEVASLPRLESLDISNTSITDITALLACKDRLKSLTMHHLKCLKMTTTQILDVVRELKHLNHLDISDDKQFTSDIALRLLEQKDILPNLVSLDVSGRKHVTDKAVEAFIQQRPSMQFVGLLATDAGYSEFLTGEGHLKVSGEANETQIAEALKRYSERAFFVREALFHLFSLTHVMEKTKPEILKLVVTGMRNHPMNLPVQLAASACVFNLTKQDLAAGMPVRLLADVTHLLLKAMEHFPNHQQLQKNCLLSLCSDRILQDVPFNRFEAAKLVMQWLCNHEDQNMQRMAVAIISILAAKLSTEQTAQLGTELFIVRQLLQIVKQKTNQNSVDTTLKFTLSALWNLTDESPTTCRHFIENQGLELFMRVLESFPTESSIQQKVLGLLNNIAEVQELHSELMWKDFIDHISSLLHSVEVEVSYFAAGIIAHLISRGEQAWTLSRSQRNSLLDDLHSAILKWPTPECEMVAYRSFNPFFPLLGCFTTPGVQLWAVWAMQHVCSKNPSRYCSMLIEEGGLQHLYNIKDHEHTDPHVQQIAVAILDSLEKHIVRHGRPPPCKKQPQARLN
UniProt Q15942: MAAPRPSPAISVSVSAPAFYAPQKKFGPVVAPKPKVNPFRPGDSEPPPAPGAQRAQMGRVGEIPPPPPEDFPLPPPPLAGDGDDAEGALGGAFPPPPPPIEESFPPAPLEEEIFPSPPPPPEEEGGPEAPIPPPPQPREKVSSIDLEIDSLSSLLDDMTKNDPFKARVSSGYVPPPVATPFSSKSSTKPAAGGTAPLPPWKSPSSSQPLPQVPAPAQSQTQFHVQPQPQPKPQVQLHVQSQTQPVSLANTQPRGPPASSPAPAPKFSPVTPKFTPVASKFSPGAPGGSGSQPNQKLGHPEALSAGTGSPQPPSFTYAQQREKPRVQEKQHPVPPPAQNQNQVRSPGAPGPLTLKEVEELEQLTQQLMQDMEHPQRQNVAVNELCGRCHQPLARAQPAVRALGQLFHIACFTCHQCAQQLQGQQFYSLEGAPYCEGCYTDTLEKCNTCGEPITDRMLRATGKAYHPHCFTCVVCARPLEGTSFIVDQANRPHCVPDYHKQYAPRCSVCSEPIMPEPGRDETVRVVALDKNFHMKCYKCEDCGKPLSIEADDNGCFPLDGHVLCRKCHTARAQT
UniProt O43149: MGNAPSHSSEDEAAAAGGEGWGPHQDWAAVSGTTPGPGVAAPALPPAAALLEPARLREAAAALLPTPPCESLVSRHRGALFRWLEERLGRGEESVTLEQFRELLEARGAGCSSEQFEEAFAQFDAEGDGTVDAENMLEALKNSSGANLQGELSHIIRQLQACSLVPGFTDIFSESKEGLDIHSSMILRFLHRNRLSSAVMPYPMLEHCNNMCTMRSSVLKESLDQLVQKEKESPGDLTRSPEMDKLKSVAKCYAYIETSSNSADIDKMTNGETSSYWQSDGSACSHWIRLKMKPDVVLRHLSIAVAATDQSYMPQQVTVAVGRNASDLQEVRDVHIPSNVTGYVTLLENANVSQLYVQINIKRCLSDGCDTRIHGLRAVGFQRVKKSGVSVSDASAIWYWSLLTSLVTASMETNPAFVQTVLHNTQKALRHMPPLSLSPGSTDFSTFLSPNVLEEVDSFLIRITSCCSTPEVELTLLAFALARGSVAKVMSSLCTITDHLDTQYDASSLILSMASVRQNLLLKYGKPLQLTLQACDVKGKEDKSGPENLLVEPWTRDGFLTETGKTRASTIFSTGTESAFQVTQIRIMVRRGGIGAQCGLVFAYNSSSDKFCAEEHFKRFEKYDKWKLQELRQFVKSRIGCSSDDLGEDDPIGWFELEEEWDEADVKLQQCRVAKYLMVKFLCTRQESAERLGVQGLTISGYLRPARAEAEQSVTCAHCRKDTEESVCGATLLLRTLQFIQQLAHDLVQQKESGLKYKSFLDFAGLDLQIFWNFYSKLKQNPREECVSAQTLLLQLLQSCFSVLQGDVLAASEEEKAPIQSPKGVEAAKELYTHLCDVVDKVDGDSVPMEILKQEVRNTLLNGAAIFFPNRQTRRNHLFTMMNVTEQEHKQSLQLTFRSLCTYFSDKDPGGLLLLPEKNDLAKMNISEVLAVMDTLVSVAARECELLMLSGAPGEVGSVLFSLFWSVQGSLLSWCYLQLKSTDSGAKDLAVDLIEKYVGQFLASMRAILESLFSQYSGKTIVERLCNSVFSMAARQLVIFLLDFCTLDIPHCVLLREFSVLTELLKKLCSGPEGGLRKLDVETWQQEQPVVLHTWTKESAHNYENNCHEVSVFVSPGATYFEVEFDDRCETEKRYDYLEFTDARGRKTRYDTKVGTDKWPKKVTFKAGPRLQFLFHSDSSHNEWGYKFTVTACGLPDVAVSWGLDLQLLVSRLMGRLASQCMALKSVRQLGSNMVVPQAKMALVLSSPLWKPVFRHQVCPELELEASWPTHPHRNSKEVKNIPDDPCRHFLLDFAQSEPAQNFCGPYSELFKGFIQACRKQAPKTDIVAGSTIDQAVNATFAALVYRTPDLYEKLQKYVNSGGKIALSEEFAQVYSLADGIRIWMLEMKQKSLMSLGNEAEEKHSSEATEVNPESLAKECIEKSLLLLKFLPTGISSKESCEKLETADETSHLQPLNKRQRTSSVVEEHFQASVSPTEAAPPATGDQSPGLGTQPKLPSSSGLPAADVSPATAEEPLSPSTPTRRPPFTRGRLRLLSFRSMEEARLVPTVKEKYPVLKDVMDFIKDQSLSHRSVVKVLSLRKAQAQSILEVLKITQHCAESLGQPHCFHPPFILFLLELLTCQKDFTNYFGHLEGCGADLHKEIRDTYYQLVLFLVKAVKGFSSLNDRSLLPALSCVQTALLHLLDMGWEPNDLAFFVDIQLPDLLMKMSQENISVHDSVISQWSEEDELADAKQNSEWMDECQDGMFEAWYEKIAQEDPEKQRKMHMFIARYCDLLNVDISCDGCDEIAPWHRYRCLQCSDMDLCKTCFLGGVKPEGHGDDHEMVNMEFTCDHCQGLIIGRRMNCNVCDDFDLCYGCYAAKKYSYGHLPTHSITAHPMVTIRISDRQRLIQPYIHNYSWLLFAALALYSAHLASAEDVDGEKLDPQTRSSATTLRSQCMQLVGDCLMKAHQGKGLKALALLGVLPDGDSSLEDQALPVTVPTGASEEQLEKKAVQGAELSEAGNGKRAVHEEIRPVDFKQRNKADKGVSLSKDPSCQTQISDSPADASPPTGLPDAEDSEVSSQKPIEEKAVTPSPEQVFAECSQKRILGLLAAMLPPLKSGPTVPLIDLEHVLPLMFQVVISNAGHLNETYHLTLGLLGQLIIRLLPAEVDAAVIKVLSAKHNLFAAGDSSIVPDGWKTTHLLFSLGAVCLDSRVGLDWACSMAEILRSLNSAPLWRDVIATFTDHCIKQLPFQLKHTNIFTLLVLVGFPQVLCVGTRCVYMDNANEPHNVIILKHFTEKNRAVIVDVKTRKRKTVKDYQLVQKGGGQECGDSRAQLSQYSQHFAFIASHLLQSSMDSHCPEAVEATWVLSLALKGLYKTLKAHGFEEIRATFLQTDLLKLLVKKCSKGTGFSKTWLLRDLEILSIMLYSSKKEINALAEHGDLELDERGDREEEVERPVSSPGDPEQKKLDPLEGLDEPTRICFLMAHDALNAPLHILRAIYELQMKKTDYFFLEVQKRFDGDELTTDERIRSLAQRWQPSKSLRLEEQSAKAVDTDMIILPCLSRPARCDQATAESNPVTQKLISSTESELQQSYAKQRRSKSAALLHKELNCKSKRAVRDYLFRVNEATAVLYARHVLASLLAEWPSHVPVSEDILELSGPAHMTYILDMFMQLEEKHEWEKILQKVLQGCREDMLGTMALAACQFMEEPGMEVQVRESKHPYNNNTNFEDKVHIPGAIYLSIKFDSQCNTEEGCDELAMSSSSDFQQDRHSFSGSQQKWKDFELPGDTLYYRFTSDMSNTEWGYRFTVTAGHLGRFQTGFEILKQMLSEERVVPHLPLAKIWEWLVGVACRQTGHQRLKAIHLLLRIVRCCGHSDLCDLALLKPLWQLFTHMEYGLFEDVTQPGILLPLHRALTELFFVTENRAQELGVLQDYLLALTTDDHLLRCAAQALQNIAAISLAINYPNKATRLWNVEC
UniProt Q8IYH5: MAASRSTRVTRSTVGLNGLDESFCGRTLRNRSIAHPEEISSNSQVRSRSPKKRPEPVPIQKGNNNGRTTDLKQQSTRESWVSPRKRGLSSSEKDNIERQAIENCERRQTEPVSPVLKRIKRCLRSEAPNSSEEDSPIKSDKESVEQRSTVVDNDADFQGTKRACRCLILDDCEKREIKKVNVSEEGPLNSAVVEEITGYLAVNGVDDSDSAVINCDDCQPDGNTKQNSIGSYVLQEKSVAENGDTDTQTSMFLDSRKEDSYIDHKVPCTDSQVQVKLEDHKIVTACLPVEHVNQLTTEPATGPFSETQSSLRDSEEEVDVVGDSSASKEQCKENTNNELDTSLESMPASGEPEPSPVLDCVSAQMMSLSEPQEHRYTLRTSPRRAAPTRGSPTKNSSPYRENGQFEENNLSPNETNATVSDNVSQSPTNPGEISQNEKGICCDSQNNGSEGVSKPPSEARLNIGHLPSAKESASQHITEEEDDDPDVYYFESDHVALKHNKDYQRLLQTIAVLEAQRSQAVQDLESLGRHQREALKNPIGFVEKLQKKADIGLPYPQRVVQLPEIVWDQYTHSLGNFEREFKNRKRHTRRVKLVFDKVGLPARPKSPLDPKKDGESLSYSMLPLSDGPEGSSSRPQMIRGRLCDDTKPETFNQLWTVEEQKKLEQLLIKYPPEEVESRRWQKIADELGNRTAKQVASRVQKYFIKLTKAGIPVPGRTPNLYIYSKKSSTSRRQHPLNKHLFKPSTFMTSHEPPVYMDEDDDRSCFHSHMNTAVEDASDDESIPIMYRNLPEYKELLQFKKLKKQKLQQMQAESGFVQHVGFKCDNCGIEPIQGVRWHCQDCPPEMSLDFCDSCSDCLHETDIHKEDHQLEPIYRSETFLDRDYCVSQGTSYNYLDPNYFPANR

Legend:
Assay in all cases: log2 fold change, soluble protein after heating vs DMSO (PISA); higher = thermal stabilisation; K562 cells, 10 uM, 30 min; active = over 0.2 and 3.5 SD of the protein, either way, in both replicates (recomputed)
ZWILCH = ZWILCH (UniProt Q9H900)
In short: (§1)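 K562 cells at 2×10^6 cells/mL were treated with 10 μM compound for 30 min. Aliquots were heated for 3 min across 48°C-58°C, pooled, and extracted in PBS with 0.5% NP-40 at 4°C; soluble protein was the supernatant after 21,000xg for 90 min. Soluble protein was quantified by TMTpro 16plex LC-MS/MS with channel sums equalised, and reported as log2 fold change in thermal stability against DMSO controls, with values from duplicates.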

ZWINT = ZWINT (UniProt O95229)
In short: as §1

ZYG11B = ZYG11B (UniProt Q9C0D3)
In short: as §1

ZYX = ZYX (UniProt Q15942)
In short: as §1

ZZEF1 = ZZEF1 (UniProt O43149)
In short: as §1

ZZZ3 = ZZZ3 (UniProt Q8IYH5)
In short: as §1

Measured: log2 fold change

NC(=O)c1cnc(N[C@@H]2CCCC[C@@H]2N)nc1Nc1cccc(-n2nccn2)c1
inactive: ZWILCH -0.085 | ZWINT -0.086 | ZYG11B 0.022 | ZYX 0.019 | ZZEF1 = -0.045 | ZZZ3 = 0.132

CN1CC[C@H](c2c(O)cc(O)c3c(=O)cc(-c4ccccc4Cl)oc23)[C@H](O)C1 [alvocidib]
inactive: ZWINT -0.022 | ZYX 0.058 | ZZEF1 = -0.009

C[C@H](Nc1ncnc2nc[nH]c12)c1cc2cccc(Cl)c2c(=O)n1-c1ccccc1 [duvelisib]
inactive: ZWINT 0.038 | ZYX -0.021 | ZZEF1 = 0.014

O=C1c2ccccc2-c2n[nH]c3cccc1c23
inactive: ZWILCH -0.007 | ZWINT -0.132 | ZYG11B -0.033 | ZYX -0.03 | ZZEF1 = 0.052 | ZZZ3 = 0.09

CC(C)c1cnn2c(NCc3ccccc3)cc(NCCCCCCN)nc12
inactive: ZWILCH -0.107 | ZWINT -0.081 | ZYG11B 0.058 | ZYX 0.03 | ZZEF1 = -0.033 | ZZZ3 = -0.016

CC[C@@H]1C(=O)N(C)c2cnc(Nc3ccc(C(=O)N[C@H]4CC[C@H](N5CCN(CC6CC6)CC5)CC4)cc3OC)nc2N1C(C)C [volasertib]
inactive: ZWINT -0.129 | ZYG11B 0.002 | ZYX 0.027 | ZZEF1 = -0.038 | ZZZ3 = -0.175
active: ZWILCH -0.266

CC(=O)c1cnc2ccc(-c3cc(Cl)c(O)c(Cl)c3)nc2c1N[C@H]1CC[C@H](CN(C)C)CC1
inactive: ZWILCH 0.004 | ZWINT 0.084 | ZYG11B 0.004 | ZYX 0.037 | ZZEF1 = 0.032 | ZZZ3 = -0.035

Cn1cncc1[C@@](N)(c1ccc(Cl)cc1)c1ccc2c(c1)c(-c1cccc(Cl)c1)cc(=O)n2C [tipifarnib]
inactive: ZWILCH -0.01 | ZWINT 0.003 | ZYG11B 0.089 | ZYX -0.011 | ZZEF1 = 0.041 | ZZZ3 = -0.038

O=C1NC(=NCc2cccs2)S/C1=C\c1ccc2ncccc2c1
inactive: ZWILCH 0.023 | ZWINT 0.032 | ZYG11B -0.007 | ZYX -0.032 | ZZEF1 = 0.122 | ZZZ3 = -0.079

Cc1ccc(Sc2cncc3sc(C(N)=O)cc23)cc1
inactive: ZWILCH -0.068 | ZWINT -0.03 | ZYG11B -0.028 | ZYX 0.051 | ZZEF1 = -0.053 | ZZZ3 = 0.016

CN(CCOc1ccc(C[C@@H]2SC(=O)NC2=O)cc1)c1ccccn1 (racemic) [rosiglitazone]
inactive: ZWINT 0.026 | ZYX 0.002 | ZZEF1 = 0.095

Two entries drawn at random from the list so far:
CN(CCOc1ccc(C[C@@H]2SC(=O)NC2=O)cc1)c1ccccn1 (racemic) [rosiglitazone]
inactive: ZWINT 0.026 | ZYX 0.002 | ZZEF1 = 0.095

Cn1cncc1[C@@](N)(c1ccc(Cl)cc1)c1ccc2c(c1)c(-c1cccc(Cl)c1)cc(=O)n2C [tipifarnib]
inactive: ZWILCH -0.01 | ZWINT 0.003 | ZYG11B 0.089 | ZYX -0.011 | ZZEF1 = 0.041 | ZZZ3 = -0.038

Carrying on:

NC1(Cc2ccc(Cl)cc2)CCN(c2ncnc3[nH]ccc23)CC1
inactive: ZWILCH -0.049 | ZWINT -0.071 | ZYG11B 0.055 | ZYX 0.03 | ZZEF1 = -0.028 | ZZZ3 = 0.178

C/C(=N\NC(=O)c1cccc(S(=O)(=O)N2CCOCC2)c1)c1cc(Cl)ccc1O
inactive: ZWILCH 0.038 | ZWINT -0.215 | ZYG11B 0.006 | ZYX -0.04 | ZZEF1 = -0.005 | ZZZ3 = 0.091

c1cc(OCCN2CCCCC2)cc(-c2n[nH]c3ccc(-c4nnc[nH]4)cc23)c1
inactive: ZWILCH -0.048 | ZWINT -0.082 | ZYG11B 0.002 | ZYX 0.017 | ZZEF1 = -0.013

Cn1cc(-c2ccc3c(c2)CCN3C(=O)Cc2cccc(C(F)(F)F)c2)c2c(N)ncnc21
inactive: ZWILCH -0.057 | ZWINT -0.057 | ZYG11B 0.063 | ZYX 0.021 | ZZEF1 = -0.058

C#Cc1cccc(Nc2ncnc3cc(OCCOC)c(OCCOC)cc23)c1 [erlotinib]
inactive: ZWILCH 0.009 | ZWINT 0.027 | ZYG11B -0.015 | ZYX 0.047 | ZZEF1 = -0.011 | ZZZ3 = 0.024

CN1CCc2c(c3ccccc3n2Cc2ccc(C(=O)NO)cc2)C1 [Tubastatin A]
inactive: ZWILCH -0.028 | ZWINT 0.1 | ZYG11B 0.04 | ZYX -0.015 | ZZEF1 = 0.004 | ZZZ3 = -0.01
